How the values were obtained:
Type in all cases: cell-based
[1] = tested on: T-47D breast cancer cells; experiment: Cell viability assay (MTT), T-47D; conditions: Homo sapiens, T47D, 72 hrs treatment, 1 to 10 μM tested, ± SD, read-out: Observed IC50 for T-47D breast cancer cells
Procedure: Experiments were performed using different cancer cell-lines, which were supplied by the American Type Culture Collection (ATCC), Rockville, Md., USA, and maintained in the recommended culturing media. The detailed steps and condition for cell culture are described as the following: T-47D, human breast ductal carcinoma: […] Tamoxifen is obtained from Sigma-Aldrich. All test samples were dissolved in absolute ethanol and serial diluted to the testing concentrations. For blank sample, absoluted ethanol was used. The final organic solvent content for all cell assays were less than or equal to 0.1%. The cell viability assay was conducted by using the method described by J. Carmichael, et al in Cancer Research 47:936 (1987). All the cells were seeded into 96-well microtitre plates and incubated at 37° C. under 5% CO2 atmosphere. For MCF7, T-47D and WS1, 3000 cells/100 μl/well were used and for HeLa, 1000 cells/100 μl/well were used. […] After additional 72 hours of incubation at 37° C. under 5% CO2 atmosphere, the cell were then collected and evaluated using MTT assay to assess the cell viability by using the method mentioned above. […] Cultures containing 3000 cells per well were treated with 0, 1, 2.5, 5 and 10 μM (final concentration) of the test samples and the viable cells were counted after 72 hrs. […]

[2] = tested on: HeLa cervical cancer cells; experiment: Cell viability assay (MTT), HeLa; conditions: Homo sapiens, 72 hrs treatment, 1 to 10 μM tested, ± SD, read-out: Observed IC50 for HeLa cervial cancer cells
Procedure: Experiments were performed using different cancer cell-lines, which were supplied by the American Type Culture Collection (ATCC), Rockville, Md., USA, and maintained in the recommended culturing media. The detailed steps and condition for cell culture are described as the following: HeLa, humen cervical adenocarcinoma: Minimum essential medium (Eagle) with 2 mM L-glutamine and Earle's BSS adjusted to contain 1.5 g/L sodium bicarbonate, 0.1 mM non-essential amino acids and 1.0 mM sodium pyruvate and supplemented with 0.01 mg/ml insulin, 90%; fetal bovine serum, 10%. Tamoxifen is obtained from Sigma-Aldrich. All test samples were dissolved in absolute ethanol and serial diluted to the testing concentrations. For blank sample, absoluted ethanol was used. The final organic solvent content for all cell assays were less than or equal to 0.1%. The cell viability assay was conducted by using the method described by J. Carmichael, et al in Cancer Research 47:936 (1987). All the cells were seeded into 96-well microtitre plates and incubated at 37° C. under 5% CO2 atmosphere. For MCF7, T-47D and WS1, 3000 cells/100 μl/well were used and for HeLa, 1000 cells/100 μl/well were used. […] After additional 72 hours of incubation at 37° C. under 5% CO2 atmosphere, the cell were then collected and evaluated using MTT assay to assess the cell viability by using the method mentioned above. […]

[3] = tested on: MCF7 breast cancer cells; experiment: Cell viability assay (MTT), MCF7; conditions: Homo sapiens, 72 hrs treatment, 1 to 10 μM tested, ± SD, read-out: Observed IC50 for MCF7 breast cancer cells
Procedure: Experiments were performed using different cancer cell-lines, which were supplied by the American Type Culture Collection (ATCC), Rockville, Md., USA, and maintained in the recommended culturing media. The detailed steps and condition for cell culture are described as the following: MCF7, human breast adenocarcinoma: Minimum essential medium (Eagle) with 2 mM L-glutamine and Earle's BSS adjusted to contain 1.5 g/L sodium bicarbonate, 0.1 mM non-essential amino acids and 1.0 mM sodium pyruvate and supplemented with 0.01 mg/ml insulin, 90%; fetal bovine serum, 10%. Tamoxifen is obtained from Sigma-Aldrich. All test samples were dissolved in absolute ethanol and serial diluted to the testing concentrations. For blank sample, absoluted ethanol was used. The final organic solvent content for all cell assays were less than or equal to 0.1%. The cell viability assay was conducted by using the method described by J. Carmichael, et al in Cancer Research 47:936 (1987). […] After additional 72 hours of incubation at 37° C. under 5% CO2 atmosphere, the cell were then collected and evaluated using MTT assay to assess the cell viability by using the method mentioned above. […] Cultures containing 3000 cells per well were treated with 0, 1, 2.5, 5 and 10 μM (final concentration) of the test samples and the viable cells were counted after 72 hrs. […]

IC50 [1]: 5.5 ± 0.21 µM | IC50 [2]: 6.1 ± 0.53 µM | IC50 [3]: 6.35 ± 0.45 µM
Structure (SMILES): CC/C(=C(\c1ccccc1)c1ccc(OCCN(C)C)cc1)c1ccccc1 [tamoxifen (TMA), tamoxifen, reference compound]
